Literature values in patent US20190125714A1, “CALPAIN INHIBITORS IN THE PREVENTION AND/OR TREATMENT OF VENTRICULAR REMODELLING” (FUNDAClÓ HOSPITAL UNIVERSITARI VALL D'HEBRON - INSTITUT DE …, priority 2016, published 2019).
At least one structure is not confirmed: it was looked up by name or label, or the drawing left a doubt. Residues, ends and D or L forms follow the SMILES beside them. *: point of attachment. Cbz = O=C(OCc1ccccc1)*

Assays:
[1] = administered at the start (onset) of reperfusion; cited from earlier work
[2] = intravenously, during the first minutes of reperfusion; cited from earlier work

CC(C)[C@H](NC(=O)OCc1ccccc1)C(=O)N[C@H](C=O)Cc1ccccc1 [MDL-28170] (Cbz-Val-Phe-aldehyde)
Cardioprotective effect [1]: cardioprotective effect | Infarct size (area of risk and necrotic) [2]: reduced
